Source: paper PMC7819943, “Rice protein-binding microarrays: a tool to detect cis-acting elements near promoter regions in rice”
This is one part of the list.

molecular target: T1, OsSMF1 (Oryza sativa, UniProt Q6ZLB0 1-436); test: protein-binding microarray (RPBM); PBS, 2% BSA, 51.3 ng/ul salmon testes DNA, 50 uM zinc acetate, 200 nM TF, 25 C, 1 h; high values mean tight binding; details: protein: recombinant; tags: N-terminal polyhistidine and DsRed monomer fusion (pET32a); chain copies: 2; label: CyDye5-dUTP incorporated in the synthesized complementary strand; 3' TTTTT single-stranded linker to array surface; dsDNA, one strand shown
T1 sequence: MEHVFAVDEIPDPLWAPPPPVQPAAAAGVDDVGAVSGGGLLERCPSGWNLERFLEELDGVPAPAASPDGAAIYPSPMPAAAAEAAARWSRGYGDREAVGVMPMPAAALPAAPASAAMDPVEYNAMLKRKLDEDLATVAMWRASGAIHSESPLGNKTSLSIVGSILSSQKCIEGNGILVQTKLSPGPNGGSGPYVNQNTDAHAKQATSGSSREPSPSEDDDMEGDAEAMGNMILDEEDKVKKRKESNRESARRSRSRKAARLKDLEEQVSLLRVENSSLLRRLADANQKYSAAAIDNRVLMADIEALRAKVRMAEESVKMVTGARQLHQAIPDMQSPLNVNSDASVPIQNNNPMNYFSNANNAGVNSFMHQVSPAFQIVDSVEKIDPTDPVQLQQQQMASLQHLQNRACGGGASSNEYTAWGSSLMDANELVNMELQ
Procedure, shortened: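 The binding signal for each feature is its fluorescence intensity in arbitrary units. An Axon 4000B scanner was used to read a custom Agilent array that had been made double-stranded with Cy5-dUTP primer extension, blocked with 2% BSA, incubated at 25 °C for 1 h with 200 nM protein in PBS, 2% BSA, salmon testes DNA and 50 µM zinc acetate, and washed. The protein was an N-terminal polyhistidine–DsRed transcription factor fusion from E. coli BL21-CodonPlus, purified on Ni–NTA.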

Row | Sequence | binding signal
1 | ATACTAGAATTTTGTGGTACCATCAGGTGCCTCCTCGAGGCGGAGTCACCTAGTGCAG | 10200 fluorescence intensity (a.u.)
2 | TCTCTCTGTCTTTACTAGTAAAATGGTAAAACTTTACCATCGGAGTCACCTAGTGCAG | 21700 fluorescence intensity (a.u.)
3 | TCATATACAATATGATCATGGCACATGACTCACACATTTGCGGAGTCACCTAGTGCAG | 4940 fluorescence intensity (a.u.)
4 | TTTATCAAAGCGTCATATATCAATGACCAGAGGTACAACACGGAGTCACCTAGTGCAG | 3940 fluorescence intensity (a.u.)
5 | GATGCGAAACGTGGCCCGAGCCTCCGCCTACACCGACCCGCGGAGTCACCTAGTGCAG | 3360 fluorescence intensity (a.u.)
6 | TCACTCAAGAAGGTGACTCATCTTTCATGTTTCTTGAAGTCGGAGTCACCTAGTGCAG | 8550 fluorescence intensity (a.u.)
7 | GATTCAAGGTTGAGAGGACCTAAGATGTCCAATGATGTGTCGGAGTCACCTAGTGCAG | 3470 fluorescence intensity (a.u.)
8 | CCCGCCGGCCGCCTACGCCACCCGCCCGTGTAAGCATCCACGGAGTCACCTAGTGCAG | 3540 fluorescence intensity (a.u.)
9 | CATATGGTAACGGCTCACCTCATTTCGTGTATCATCTCAACGGAGTCACCTAGTGCAG | 17800 fluorescence intensity (a.u.)
10 | TGCATGTAGTGGGCTGCACCTGGTGCGTCTGCATGCGTGGCGGAGTCACCTAGTGCAG | 6600 fluorescence intensity (a.u.)
11 | TCGCACCGTCCAACCGCGTCATCTCGTGGACACGTGTCACCGGAGTCACCTAGTGCAG | 20900 fluorescence intensity (a.u.)
12 | CTTCCTCCTGCAAATATGCGTAGTCTTCTGTCATCGTCGACGGAGTCACCTAGTGCAG | 4860 fluorescence intensity (a.u.)
13 | TGTCCCCTTTCAACCTGTCATCGCCGCGTCCACCGCAGCGCGGAGTCACCTAGTGCAG | 4470 fluorescence intensity (a.u.)
14 | TTCTTGTCTTGGGGATTAGGTATGTCATACAAGACTCGACCGGAGTCACCTAGTGCAG | 5110 fluorescence intensity (a.u.)
15 | TGGCATGTTACATTGGATATACGGACACAAATTTGATGTACGGAGTCACCTAGTGCAG | 4180 fluorescence intensity (a.u.)
16 | ACGGCCGCCACGCGAGAACCCTAACCACAATACCTACCGGCGGAGTCACCTAGTGCAG | 3240 fluorescence intensity (a.u.)
17 | CCTATATGCACTAGTGTCCTGAGTATTCAATTTATTGTGTCGGAGTCACCTAGTGCAG | 3160 fluorescence intensity (a.u.)
18 | CATCGTGTTGCTGACTGTACTTGACATCAACTCTTGTCCTCGGAGTCACCTAGTGCAG | 14700 fluorescence intensity (a.u.)
19 | GTTTCGGCTTTCCTATCGCTTAGGTTGACACGTGGCGGATCGGAGTCACCTAGTGCAG | 26500 fluorescence intensity (a.u.)
20 | TAGATCTTGCTTAGCTAGCTAGCGAATTAGTGTCGTCTTCCGGAGTCACCTAGTGCAG | 3140 fluorescence intensity (a.u.)
21 | GGCCGCCATGGCGCAGCGGCACGAGCGGTGGATGGCCAAGCGGAGTCACCTAGTGCAG | 34700 fluorescence intensity (a.u.)

Single entries from the results shown:
TAGATCTTGCTTAGCTAGCTAGCGAATTAGTGTCGTCTTCCGGAGTCACCTAGTGCAG | binding signal: 3140 fluorescence intensity (a.u.)
CTTCCTCCTGCAAATATGCGTAGTCTTCTGTCATCGTCGACGGAGTCACCTAGTGCAG | binding signal: 4860 fluorescence intensity (a.u.)

Further entries

Row | Sequence | binding signal
22 | TTATAAACACACAACAAACATACGCGCTCACAACGCGTGCCGGAGTCACCTAGTGCAG | 3150 fluorescence intensity (a.u.)
23 | TGGGTTTGTGGGTTATGTTTCGGTGCGTGCCGATAGTATACGGAGTCACCTAGTGCAG | 3800 fluorescence intensity (a.u.)
24 | TCTTCTATAACTAGGATTGACCTGTTGGTCATCCCGATGACGGAGTCACCTAGTGCAG | 3290 fluorescence intensity (a.u.)
25 | TGCAAACTTGTGAGTCACACAGTAGCATTGTGCACAGCTTCGGAGTCACCTAGTGCAG | 11300 fluorescence intensity (a.u.)
26 | TACGACAAGCGTGTAGGACACGTAATTATCGGTAAACAGTCGGAGTCACCTAGTGCAG | 6290 fluorescence intensity (a.u.)
27 | ACTAGCACACAGCAAGGCCCGTAGCACGCGTCACCACGGGCGGAGTCACCTAGTGCAG | 4540 fluorescence intensity (a.u.)
28 | GGATTTGAATCCGCCGGGTGTAGTATTGATCTGATGATCACGGAGTCACCTAGTGCAG | 13100 fluorescence intensity (a.u.)
29 | GATAAACTTTTGGATACTCATGACACGCTTTTCAAACTGCCGGAGTCACCTAGTGCAG | 4060 fluorescence intensity (a.u.)
30 | TCTAATTAGTAGTATTATTATACATGTGGTCAGCAATTTTCGGAGTCACCTAGTGCAG | 8560 fluorescence intensity (a.u.)
31 | GGGATTGGGAATTTACACGAGGGAATTGATGATGAGATTACGGAGTCACCTAGTGCAG | 3830 fluorescence intensity (a.u.)
32 | CTCATGTCATGTGGTCACTCCCCAAGTCACCAGCATCACCCGGAGTCACCTAGTGCAG | 3430 fluorescence intensity (a.u.)
33 | TGCTATTTATGAGGTATTCATGTACAACTATAACATTCGACGGAGTCACCTAGTGCAG | 3390 fluorescence intensity (a.u.)
34 | GACGTGGTAAGTTAACTTGGTTAAAATGTGCTGACGTGGTCGGAGTCACCTAGTGCAG | 24700 fluorescence intensity (a.u.)
35 | ATGTTGCCTTTCTTTCGTCAACTATTTGCATTGCATGCATCGGAGTCACCTAGTGCAG | 3280 fluorescence intensity (a.u.)
36 | AACCGATTACCGGTACTCCAAATGACCTCACTGCATTTCTCGGAGTCACCTAGTGCAG | 3180 fluorescence intensity (a.u.)
37 | GTGTTTTATCCATCATACGTGATGTGTTACTCGCGCGTGTCGGAGTCACCTAGTGCAG | 3880 fluorescence intensity (a.u.)
38 | ATATATGCTAAGTATAAGTAGGGACATGACGCAAGTGTCACGGAGTCACCTAGTGCAG | 3920 fluorescence intensity (a.u.)
39 | CCACCGCCGGCCACACACCTCCTGCCACGCCGCGCGCTCGCGGAGTCACCTAGTGCAG | 5040 fluorescence intensity (a.u.)
40 | GGCCAGACAATTGTTAATGGGCTTGGGCTCGCTCAGGGAACGGAGTCACCTAGTGCAG | 31400 fluorescence intensity (a.u.)
41 | AACAGTACAGCAGCTCACATGTCACGATCAAACCGTGTAACGGAGTCACCTAGTGCAG | 4240 fluorescence intensity (a.u.)
42 | TAGGACTTATTCTTTTGGTGTTGACACAAGGTACATGCTACGGAGTCACCTAGTGCAG | 4100 fluorescence intensity (a.u.)
